Measured values from patent US10231939B2, “Hydroxytyrosol and oleuropein compositions for induction of DNA damage, cell death and LSD1 inhibition” (priority 2012, dated 2019).
At least one compound was matched to its structure with a doubt left.

How the values were obtained:
Type in all cases: cell-based, human
PBMC [1] = assay: Total Antioxidant Capacity Assay, PBMC; conditions: 50 μM hydroxytyrosol, 200 μM Oleuropein or Formulation 2 (dilution factor=4), 24 hours
Procedure: Human peripheral blood mononuclear cells were seeded at 1×10^6 cells per well in 12 well culture plates (Nalge Nunc) with Formulation 2 (dilution factor=4) (Table 9), 50 μM hydroxytyrosol or 200 μM Oleuropein for 24 hours; 37° C., 5% (v/v) CO2. In separate experiments, cells were treated with 30 mM glucose for 72 hours prior to 24 hours incubation in fresh media and then a 24 hour incubation with the hydroxytyrosol-containing formulation 2 (dilution factor=4); 37° C., 5% (v/v) CO2. Experiments to determine the protection of cells following doxorubicin treatment involved pre-treatment with Formulation 2 (dilution factor=4) for 24 hours prior to 1 hour incubation with 1 μM doxorubicin. Cells were washed and incubated for a further 24 hours in fresh media; 37° C., 5% (v/v) CO2. Cells were harvested for their total protein by centrifugation at 1000×g for 10 minutes at 4° C. to pellet cell suspensions. […] Cell lysates were analyzed for their total antioxidant capacity. […] The sum of endogenous and food-derived antioxidants in the sample represented the total antioxidant activity of the cells and was measured by their ability to inhibit the oxidation of ABTS (2,2′-Azino-di-[3-ethylbenzthiazoline sulphonate]) in the presence of metmyoglobin using the Perkin Elmer Multi-plate reader (λem=750 nm). […]

PBMC [2] = assay: Cell proliferation (Cell Titer-Blue Assay); conditions: 120 hours incubation
Procedure: Human peripheral blood mononuclear cells (PBMCs) were fractionated using the Ficoll Plaque fractionation method from whole blood obtained from the Australian Red Cross Blood Bank (ARCB) under ethic approval (#304/12). Cells were harvested fresh on the day of the experiments and maintained in complete-RPMI-1640 medium supplemented with 10% FBS, 2 mM L-glutamine and 20 μg/mL gentamicin at 37° C., 5% (v/v) CO2. Cell proliferation was determined using the Cell Titer-Blue Assay kit (Promega, Madison, Wis., USA). Cells were seeded at 10,000 cells per well in black flat bottom 96-well plates (Nalge Nunc, Penfield, N.Y., USA) and treated with serial doses of hydroxytyrosol (0-3200 μM) and oleuropein (0-12800 μM) for 24, 48 and 120 hours at 37° C., 5% (v/v) CO2. Following incubation with the test samples, Cell-Titer Blue reagent (20 μl per 100 μL) was added to each well and mixed gently for 5 sec prior to 4 hr incubation at 37° C. in a humidified atmosphere of 5% CO2. Fluorescence intensity (λex=550 nm and λem=615 nm) was determined using a Perkin Elmer Victor3 multilabel microplate counter (PerkinElmer, Waltham, Mass., USA). Data were expressed as % relative cell viability compared to untreated cells after correction of subtracting the media control fluorescence reading.

PBMC [3] = assay: Apo-ONE Homogeneous Caspase 3/7 assay, PBMC; conditions: oleuropein 24 hours

C/C=C1/[C@H](O[C@@H]2O[C@H](CO)[C@@H](O)[C@H](O)[C@H]2O)OC=C(C(=O)OC)[C@H]1CC(=O)OCCc1ccc(O)c(O)c1 [OL, oleuropein]
total antioxidant capacity (PBMC [1]): significantly increased the total antioxidant | cell proliferation of PBMC (PBMC [2]): increases the proliferation | cell proliferation of PBMC (PBMC [2]; listed as oleuropein): attenuated | apoptosis (caspase 3/7) (PBMC [3]): significantly reduces apoptosis
